Measurements reported in article doi:10.1101/2022.07.24.501280.
No constants are given. Whether binding was seen depends on the method and setting. Binding seen in cells or lysates may run through a third protein.

Target: HA tagged PERK Δloop (UniProt Q9Z2B5)
Assay: co-IP

eIF2α (in HEK 293 cells) (from UniProt P05198 1-315)
binding: no binding
